PubChem BioAssay AID1259254, NCATS | 2017

Screen: 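Finding genes that stop cells copying their DNA twice in one cycle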 (primary screen)
System: human HCT116 colorectal cancer cells
Reagent: single siRNA against human genes
Timing: 3 days
Measured: 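Imaged Hoechst DNA stain sorts each cell into a cycle phase by DNA amount; per plate, G2 fraction set to 0% for non-targeting and 100% for GMNN siRNA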
Scale: G2 robust z-score and G2 cells, % of GMNN control: higher = more G2 cells, more excess DNA replication; raw share of cells in G2: higher = larger share of cells with G2 DNA content
Call rule: 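Active siRNAs have a G2 robust z of 5 or more median absolute deviations over the median, which in these data means about 38% or higher of GMNN control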
This is an unselected part of about 59,000 deposited reagents. About 1,550 of them (2.6%) count as active. 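G2 share is only a proxy for re-replication; each gene was hit by three separate siRNAs, and active genes were retested.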 Raw values are not corrected between plates. Not stated in the record: the amount of reagent.

gene knocked down | PubChem SID | G2 robust z-score | G2 cells, % of GMNN control | raw share of cells in G2 (%) | call
CHD5 (chromodomain helicase DNA binding protein 5) | SID160737507 | -0.267 | 1.09 | 4.55 | inactive
CHD5 (chromodomain helicase DNA binding protein 5) | SID160737508 | 5 | 38.1 | 16.5 | active
CHD5 (chromodomain helicase DNA binding protein 5) | SID160737509 | 1.77 | 15.4 | 13.2 | inactive
CEBPE (CCAAT enhancer binding protein epsilon) | SID160741679 | -0.706 | -2 | 4.25 | inactive
CEBPE (CCAAT enhancer binding protein epsilon) | SID160741688 | 0.907 | 9.35 | 8.41 | inactive
CEBPE (CCAAT enhancer binding protein epsilon) | SID160741699 | 2.87 | 23.1 | 12.1 | inactive
LRRC7 (leucine rich repeat containing 7) | SID160746256 | -0.743 | -2.26 | 3.45 | inactive
LRRC7 (leucine rich repeat containing 7) | SID160746257 | -0.486 | -0.454 | 4.24 | inactive
LRRC7 (leucine rich repeat containing 7) | SID160746258 | 0.353 | 5.45 | 4.76 | inactive
HYDIN (HYDIN axonemal central pair apparatus protein) | SID160742136 | 0.55 | 6.84 | 6.05 | inactive
HYDIN (HYDIN axonemal central pair apparatus protein) | SID160742137 | 1.98 | 16.9 | 11.4 | inactive
HYDIN (HYDIN axonemal central pair apparatus protein) | SID160742138 | 0.294 | 5.04 | 4.86 | inactive
SIX3 (SIX homeobox 3) | SID160716754 | 3.74 | 29.3 | 17.4 | inactive
SIX3 (SIX homeobox 3) | SID160716755 | -1.18 | -5.34 | 2.11 | inactive
SIX3 (SIX homeobox 3) | SID160716756 | 6.7 | 50.1 | 21.5 | active
ATOH7 (atonal bHLH transcription factor 7) | SID160761512 | 2.69 | 21.9 | 13.9 | inactive
ATOH7 (atonal bHLH transcription factor 7) | SID160761513 | -0.605 | -1.29 | 5.34 | inactive
ATOH7 (atonal bHLH transcription factor 7) | SID160761514 | -1.05 | -4.43 | 3.08 | inactive
INAVA (innate immunity activator) | SID160733624 | -0.167 | 1.79 | 3.71 | inactive
INAVA (innate immunity activator) | SID160744305 | 1.17 | 11.2 | 8.83 | inactive
INAVA (innate immunity activator) | SID160744307 | -0.119 | 2.13 | 5.02 | inactive
FJX1 (four-jointed box kinase 1) | SID160732780 | 2.4 | 19.9 | 10.2 | inactive
FJX1 (four-jointed box kinase 1) | SID160736916 | -0.516 | -0.662 | 4.16 | inactive
FJX1 (four-jointed box kinase 1) | SID160736918 | 0.00411 | 3 | 5.24 | inactive
ZNF518A (zinc finger protein 518A) | SID160723248 | -0.523 | -0.709 | 3.29 | inactive
ZNF518A (zinc finger protein 518A) | SID160723250 | -0.079 | 2.41 | 7.06 | inactive
ZNF518A (zinc finger protein 518A) | SID160723251 | -0.416 | 0.0425 | 3.36 | inactive
NKG7 (natural killer cell granule protein 7) | SID160723957 | -0.167 | 1.79 | 4 | inactive
NKG7 (natural killer cell granule protein 7) | SID160778081 | 0.117 | 3.79 | 6.58 | inactive
NKG7 (natural killer cell granule protein 7) | SID160778082 | 0.34 | 5.36 | 6.34 | inactive

Entries above whose gene name begins with I or i:
gene knocked down | PubChem SID | G2 robust z-score | G2 cells, % of GMNN control | raw share of cells in G2 (%) | call
INAVA (innate immunity activator) | SID160733624 | -0.167 | 1.79 | 3.71 | inactive
INAVA (innate immunity activator) | SID160744305 | 1.17 | 11.2 | 8.83 | inactive
INAVA (innate immunity activator) | SID160744307 | -0.119 | 2.13 | 5.02 | inactive
